Consider one substance from publication PMC11354204, “Lactylation stabilizes TFEB to elevate autophagy and lysosomal activity” (The Journal of Cell Biology, 2024).

By UniProt entry, the sequences of proteins in these tests, tags left out.
UniProt P19484: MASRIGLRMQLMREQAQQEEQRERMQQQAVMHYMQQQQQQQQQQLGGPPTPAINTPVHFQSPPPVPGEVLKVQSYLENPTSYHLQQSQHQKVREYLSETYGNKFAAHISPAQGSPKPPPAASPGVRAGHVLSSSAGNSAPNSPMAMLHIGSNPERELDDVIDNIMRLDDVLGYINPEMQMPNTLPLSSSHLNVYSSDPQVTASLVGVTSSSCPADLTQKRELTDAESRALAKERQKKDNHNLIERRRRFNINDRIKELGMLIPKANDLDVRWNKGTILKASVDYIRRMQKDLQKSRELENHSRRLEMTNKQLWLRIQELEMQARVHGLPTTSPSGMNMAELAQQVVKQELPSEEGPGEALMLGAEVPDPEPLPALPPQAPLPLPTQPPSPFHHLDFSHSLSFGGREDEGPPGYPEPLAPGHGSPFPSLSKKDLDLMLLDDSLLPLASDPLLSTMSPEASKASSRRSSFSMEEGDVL
UniProt Q9UNE7: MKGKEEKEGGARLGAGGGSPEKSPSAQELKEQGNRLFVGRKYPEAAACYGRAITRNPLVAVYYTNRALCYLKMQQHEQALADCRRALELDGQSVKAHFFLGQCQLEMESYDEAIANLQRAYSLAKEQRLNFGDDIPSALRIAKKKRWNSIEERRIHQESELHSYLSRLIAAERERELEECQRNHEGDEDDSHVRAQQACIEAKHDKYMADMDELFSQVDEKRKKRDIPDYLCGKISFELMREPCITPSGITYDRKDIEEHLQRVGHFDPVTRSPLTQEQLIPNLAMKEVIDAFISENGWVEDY

The target in this test is TFEB-Flag (human) (UniProt P19484). The test can be described thus: affinity purification with mass spectrometry; TFEB-Flag immunoprecipitated with anti-Flag beads from HEK293T cells; on-bead trypsin digestion, HPLC-MS/MS.

Results are given in words; binding and its absence hold for the method and conditions named. Binding seen in cells or lysates may run through a third protein. A yes stands for co-enrichment or nearness to the bait. Other partners may have been found.

On to “STUB1 (endogenous) (from UniProt Q9UNE7 1-303)”, for which the binding result is reported as “binds”.
